# Measurements reported in PubChem BioAssay AID2685 (National Center for Advancing Translational Sciences (NCATS), 2010).
# About 2,100 (0.66%) of roughly 320,000 compounds were called active. Inconclusive results, whose numbers are uncertain, are shown with a selection of clear calls. Calls come from the whole dose curve; as a rule, active = well fitted inhibition curve with a large enough effect in the signal ratio, with a control signal flat (not every such curve was filed as active); inconclusive = small, poorly fitted or top-dose-only effect, or effect the other way, or a change in a side signal; inactive = flat fitted curve, though single readings scatter; the % refers to the signal ratio. A potency beside an inconclusive call is a rough fit, not a confirmed value.
# Assay: qHTS Assay for Lipid Storage Modulators in Drosophila S3 Cells
# Conditions: BODIPY lipid droplet fluorescence, 18-24 h, cells fed with added oleic acid; lipid storage change, negative = inhibition: at 46.1 µM (top of the series) unless noted
# Summary of the method: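 Drosophila S3 cells loaded with oleic acid (400 uM, as added) and compounds at several concentrations; lipid droplets imaged by 488-nm laser-scanning cytometry, 500–530 nm intensity and object ratio to cell channel. Percent activity normalized to 20 uM Triacsin C.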
# % is set by controls: 0 for no effect and ±100 for the full control effect; potency is the fitted concentration of half-maximal effect.
Compound,Potency,"lipid storage change, negative = inhibition"
Cc1ncc(CN2CCCC(C(=O)Nc3ccc(-c4cccc(F)c4)cc3)C2)n1C (centres undefined),"inconclusive: 18.4 µM [activator, single point]",
CCOc1cc(/C=N/Nc2nc(-c3cccc(S(=O)(=O)N4CCCC4)c3)cs2)ccc1O,,inconclusive: 34.7%
COc1ccc(C(=O)Nc2c(-c3ccccc3)nc3ccccn23)c(OC)c1,,inconclusive: 1.44%
CC1=NN(C(N)=S)C(=O)C1N=Nc1cccc(C(=O)O)c1 (centres undefined),"inconclusive: 0.651 µM [activator, full curve, poor fit]",
OC1C(O)C(O)C(O)C(O)C1O (centres undefined),,inconclusive: -7.46%
COc1ccc2[nH]cc(CCNC(=O)CS(=O)(=O)Cc3ccccc3)c2c1,,inconclusive: 21.7%
COc1ccc(CCNC(=O)C2CCCN2C(=O)NC2CCCCC2)cc1OC (centres undefined),,inconclusive: -11.4%
CC(C)CCC(O)(CCC(C)C)C(=O)NN1CCCCC1,,inconclusive: 18.2%
COc1cc(/C=C2/C(=N)N3C(=NC2=O)SN=C3S(C)(=O)=O)ccc1OC(=O)c1ccco1,"inconclusive: 29.1 µM [falling, single point]",
O=C(N/N=C/c1ccc(Cl)cc1)C(=O)N1CCCCCC1,,inconclusive: 8.88%
CC1CN(c2nnc(-c3ccccc3)c3ccccc23)CC(C)O1 (centres undefined),,inconclusive: 62.9%
O=C(CNC(=O)c1ccco1)Nc1ccncc1,,inactive: 23%
Cc1cc(F)ccc1NC(=O)C(C)n1c2ccccc2c2nc(=O)cc(C)n21 (centres undefined),,inconclusive: 1.58%
CCCCn1c(N)c(N(CCOC)C(=O)C2CC(=O)N(c3ccc(CC)cc3)C2)c(=O)[nH]c1=O (centres undefined),"inconclusive: 1.3 µM [falling, partial curve]",
O=c1[nH]c(-c2ccccc2)c(-c2ccccc2)[nH]1,,inconclusive: 1.32%
Cc1ccc(C(=O)NC(=S)NCc2cccnc2)cc1,,inconclusive: 18.9%
CC(c1nc2ccccc2c(=O)[nH]1)N(C)CCOc1ccc(Cl)cc1 (centres undefined),,inconclusive: 42.6%
CC1Cc2ccccc2N1C(=O)CCS(=O)(=O)c1cccs1 (centres undefined),,inconclusive: 12.8%
COc1ccc(COc2cc(-c3cccc(OC)c3)nc3ccc(NC(=O)c4ccc(OC)cc4)cc23)cc1,"inconclusive: 4.11 µM [activator, partial curve, poor fit]",
NC(=O)c1ccccc1OCC(=O)Nc1cccnc1Cl,,inconclusive: 1.18%
COc1ccc(NC(=O)c2cccc(N3C(=O)C4C5C=CC(C6CC56)C4C3=O)c2)c(OC)c1 (centres undefined),active: 5.17 µM,
O=C(c1ccc(S(=O)(=O)NCc2ccco2)cc1)N1CCCC1,"inconclusive: 0.0052 µM [falling, full curve, poor fit]",
CC(C)CCN1C(=O)c2ccccc2C1C(=O)NCc1cccnc1 (centres undefined),,inconclusive: 4.76%
CCOc1ccc2[nH]c(=O)c(CN(Cc3ccc(F)cc3)C(=O)N3CCCC3)cc2c1,"inconclusive: 0.164 µM [activator, full curve, poor fit]",
Cc1ccccc1C(=O)OC1CCCN(C)C1 (centres undefined),,inconclusive: -37.3%

Compound,Potency,"lipid storage change, negative = inhibition"
COc1ccc2c(c1)c(=O)oc1cc(OCC(=O)NCC3CCC(C(=O)O)CC3)ccc12 (centres undefined),,inconclusive: -5.23%
Nc1ccc(Cl)c(S(=O)(=O)Nc2ccc(Cl)cc2)c1,"inconclusive: 6.51 µM [rising, single point]",
COc1cccc(-c2c(C(=O)N/N=C/c3ccncc3)nnn2-c2nonc2N)c1,"inconclusive: 6.51 µM [falling, single point]",
CCOc1ccc(Br)cc1S(=O)(=O)NC1CC(C)(C)NC(C)(C)C1,,inconclusive: 5.91%
C/C(CCC(C)C)=N\NC(=S)Nc1cc(S(=O)(=O)N2CCOCC2)ccc1N1CCOCC1,,inconclusive: -14.6%
CCN(c1ccc(OC)cc1)S(=O)(=O)N1CCCC(C(=O)NCc2ccccc2Br)C1 (centres undefined),,inconclusive: -28.7%
O=C(NC1CCCCC1)c1cc(-c2ccc(O)cc2)on1,"inconclusive: 0.58 µM [falling, single point]",
CCOC(=O)/C(C#N)=C\c1cc(C)n(-c2ccccc2)c1C,"inconclusive: 1.84 µM [activator, partial curve]",
O=C1C=C(O)C(n2cncn2)C(c2ccc(F)cc2)C1 (centres undefined),,inconclusive: -23.1%
Cc1cc(C)c2sc(NC(=O)c3ccc(N4C(=O)CCC4=O)cc3)nc2c1,,inconclusive: 30%
CCCCNc1ccc(C(CC(N)=O)NC(=O)c2cc(C)cc(C)c2)cc1[N+](=O)[O-] (centres undefined),,inconclusive: -14.3%
Cc1c(C)n2c(SCC(=O)N3CCCCCC3)nnc2[nH]c1=O,,inconclusive: -25.3%
CC1=NNC(=O)C1C(c1ccc(Cl)cc1)C(C#N)C#N (centres undefined),,inconclusive: -24.3%
Cc1ccc(S(=O)(=O)N2CCC(C(=O)OCC(=O)N(C)CC(=O)Nc3ccc(F)cc3)CC2)cc1C,,inconclusive
COCCN(C(=O)c1ccc(COc2ccccc2)o1)c1c(N)n(CC(C)C)c(=O)[nH]c1=O,"inconclusive: 29.1 µM [falling, single point]",
Cc1ccc(N2C(=O)c3ccccc3C2Nc2ccc(S(=O)(=O)N3CCOCC3)cc2)nc1 (centres undefined),,inconclusive: -18.9%
COc1ccccc1CNC(=O)CCn1c(=O)[nH]c2ccsc2c1=O,,inactive: 1.06%
COc1cccc(SCc2noc(C(=O)NCc3ccccc3)c2C(=O)NCc2ccccc2)c1,,inconclusive: -8.92%
COc1cccc(N2CCN(S(=O)(=O)c3ccc(CN4C(=O)c5cccnc5C4=O)cc3)CC2)c1,"inconclusive: 29.1 µM [activator, single point]",
Cc1ccccc1NC(=O)C1CCCN1S(=O)(=O)c1cccc2cccnc12 (centres undefined),"inconclusive: 8.2 µM [activator, partial curve]",
Cc1ccc2oc(=O)n(Cc3ccccc3)c2c1,"inconclusive: 29.1 µM [activator, single point]",
COc1ccc(CN2CCOCC2)cc1,"inconclusive: 1.3 µM [falling, full curve, poor fit]",
Nn1c(SCC(=O)Nc2nccs2)nncc1=O,,inconclusive: -24.4% [at 9.22 µM]
Cc1ccc(C)c(-n2c3nc(=O)[nH]c(=O)c-3cc3cc([N+](=O)[O-])ccc32)c1,"inconclusive: 6.51 µM [falling, partial curve]",
COc1ccc(Cc2nnc(SC)[nH]c2=O)cc1OC,,inconclusive: 2.03%

# Among those listed so far, these contain an aryl thioether with sulfur outside any ring.
Compound,Potency,"lipid storage change, negative = inhibition"
Cc1c(C)n2c(SCC(=O)N3CCCCCC3)nnc2[nH]c1=O,,inconclusive: -25.3%
COc1cccc(SCc2noc(C(=O)NCc3ccccc3)c2C(=O)NCc2ccccc2)c1,,inconclusive: -8.92%
Nn1c(SCC(=O)Nc2nccs2)nncc1=O,,inconclusive: -24.4% [at 9.22 µM]
COc1ccc(Cc2nnc(SC)[nH]c2=O)cc1OC,,inconclusive: 2.03%

# (listing goes on)

Compound,Potency,"lipid storage change, negative = inhibition"
COc1ccccc1NC(=O)c1ccc(NC(=O)COC(=O)C2(C)CC2(Cl)Cl)cc1 (centres undefined),"inconclusive: 0.92 µM [rising, full curve]",
CCOc1ccc(S(=O)(=O)NCc2ccncc2)cc1NC(=O)c1ccccc1F,,inconclusive: -10.5%
CC(=O)Nc1ccccc1OCC(=O)N(Cc1ccccc1)C(C)C,"inconclusive: 29.1 µM [falling, single point]",
CCN(CC)S(=O)(=O)c1ccc(N=N/C(C(C)=O)=C(/C)O)cc1,"inconclusive: 3.66 µM [activator, single point]",
COc1cc(C(=O)OCC(=O)NCCC2=CCCCC2)ccc1OCC(C)C,,inconclusive: 2.98%
CCCCCCOC(=O)C(C#N)c1nc2ccccc2nc1N1CCOCC1 (centres undefined),"inconclusive: 0.461 µM [activator, full curve, poor fit]",
COC(=O)C1=C(C)N(C(C)C)C(=O)C1(NC(=O)C1CCCCC1)C(F)(F)F (centres undefined),active: 25.9 µM,
CC(C(=O)Nc1ccc(F)c(F)c1F)N(C)CC(=O)Nc1ccccc1Br (centres undefined),,inconclusive: 19.3%
Cn1c(CN2CCCCC2)nc2cc(NC(=O)c3ccccc3)ccc21,,inconclusive: 85.1%
COc1ccc(OCC(=O)Nc2ccc(S(=O)(=O)N3CCCC3)cc2)cc1,,inconclusive: 34.1%
CC(C)(C)NC(=O)CSc1nnc(-c2ccco2)n1Cc1ccco1,"inconclusive: 6.51 µM [falling, single point]",
Cc1cc(C(=O)COC(=O)c2ccncc2)c(C)n1Cc1ccco1,,inconclusive: -16.7%
COc1ccc2cc(Br)ccc2c1CC(=O)NC(C)(C)C,,inconclusive: 26.6%
Cc1nc2ccc(S(=O)(=O)Nc3cc(-c4nc5cccnc5s4)ccc3C)cc2s1,"inconclusive: 1.64 µM [activator, partial curve]",
COc1cccc(CC(NC(C)=O)C(=O)NC2CCN(C(=O)Nc3ccc(C)cc3)CC2)c1 (centres undefined),,inactive: -17.2%
Cc1cc(C)cc(C(=O)NCC(=O)OCc2nc(N)nc(Nc3ccccc3C)n2)c1,,inconclusive: -46.7%
Cc1cc(C)n2nc(/C(C#N)=C/c3ccccc3)c(C#N)c2n1,"inconclusive: 9.2 µM [activator, partial curve, poor fit]",
CNc1snc(C)c1C(=O)OCC(=O)N(C)Cc1ccccc1,active: 14.6 µM,
O=C(COC(=O)[C@@H]1CC(O)CN1S(=O)(=O)c1ccc(Cl)cc1)NC(=O)NCc1ccccc1 (some centres undefined),"inconclusive: 20.6 µM [activator, single point]",
COc1cc(/C=C/[N+](=O)[O-])ccc1OCc1cccc(C(=O)O)c1,,inconclusive: -34%
N#C/C(=C(/O)CCl)c1nc2c(s1)CCc1ccccc1-2,,inconclusive: -100%
Cn1c(N)c(C#N)c2c(c1=S)COC(C)(C)C2,,inconclusive: -1.66%
CCC(C)(C(=O)Nc1ccc(OC)cc1)N(C)C(=O)Cn1nnnc1N (centres undefined),,inconclusive: -47.5%
COc1ccc(CN2CCN(C(=O)CCC(=O)Nc3nnc(C4CCCCC4)s3)CC2)cc1F,"inconclusive: 29.1 µM [falling, single point]",
